In experiment [1] the target is T1, PfSRP14 (residues 1-104), SRP14 from Plasmodium falciparum (Plasmodium falciparum) (UniProt F2X1X6).
T1 sequence: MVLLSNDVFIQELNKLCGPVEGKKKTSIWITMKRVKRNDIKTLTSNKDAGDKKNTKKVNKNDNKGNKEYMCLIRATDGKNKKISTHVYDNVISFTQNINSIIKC
In words: SEC-MALS; co-expressed and co-purified heterodimer, ~1 mg/mL, Superdex 200 10/300, 4°C, 20 mM HEPES pH 7.5, 150 mM NaCl, 10 mM MgCl2, 10 mM KCl, 1 mM DTT; both purified. A general note: SEC sorts molecules by how far they enter the pores of the column.

Experiment [2] has as its target T1, PfSRP14 (residues 1-104), SRP14 from Plasmodium falciparum (Plasmodium falciparum). As to the kind of experiment: SAXS; purified heterodimer in solution, 20°C, beamline BM29 (ESRF), flow mode; ab initio envelope (DAMMIF/DAMMIN); both purified.

These are yes or no findings as the source states them, for the method shown. Some binding calls cover weakened binding; strength is not graded here.

These results are taken from PMC8137916.

B1: PfSRP9 (residues 1-103), SRP9 from Plasmodium falciparum (protein, UniProt F2X1X5 1-103)
chain: MVYAESWNDFIHTTRNIISKSPDKTRYVIKLHRPSETIIVKVTDNNNSIMYKLDKNDNMKKIEELNSLFLMWGTSENPNEPFPLKMNKITDKGTIDQKMKKTK
Take B1: the binding result in experiment [1] and in experiment [2] was “binds” each time.
